Only a part is listed here, and it is no random draw.
Compound: COC(=O)C#Cc1ccccc1 [methyl 3-phenylpropiolate]
Experiment: log2 ratio of iodoacetamide-alkyne labeling of the cysteine site, DMSO over compound (competition); higher = stronger covalent engagement of the cysteine by the compound, active = 1 or more
Conditions: 500 µM; treatment time 1 h; system: HEK293T cell lysate
In short: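 For each cysteine, the log2 competition ratio is mean control-channel reporter intensity over mean compound-channel reporter intensity. HEK293T lysate (2 mg/mL) was exposed to vehicle or electrophile (500 µM, 1 h, ambient temperature), labelled with iodoacetamide alkyne (1 h), clicked to sCIP-TMT reagents, digested overnight with trypsin at 37 °C, streptavidin-enriched and analysed by Orbitrap Eclipse LC-MS/MS with FAIMS and FragPipe. Cysteines quantified in only one of three replicates, each with duplicate channels, were excluded.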

By UniProt entry, the sequences of proteins in these tests, tags left out. Where a name states a change or a piece, a line headed by the entry shows the natural chain unless it says otherwise.
UniProt P46060: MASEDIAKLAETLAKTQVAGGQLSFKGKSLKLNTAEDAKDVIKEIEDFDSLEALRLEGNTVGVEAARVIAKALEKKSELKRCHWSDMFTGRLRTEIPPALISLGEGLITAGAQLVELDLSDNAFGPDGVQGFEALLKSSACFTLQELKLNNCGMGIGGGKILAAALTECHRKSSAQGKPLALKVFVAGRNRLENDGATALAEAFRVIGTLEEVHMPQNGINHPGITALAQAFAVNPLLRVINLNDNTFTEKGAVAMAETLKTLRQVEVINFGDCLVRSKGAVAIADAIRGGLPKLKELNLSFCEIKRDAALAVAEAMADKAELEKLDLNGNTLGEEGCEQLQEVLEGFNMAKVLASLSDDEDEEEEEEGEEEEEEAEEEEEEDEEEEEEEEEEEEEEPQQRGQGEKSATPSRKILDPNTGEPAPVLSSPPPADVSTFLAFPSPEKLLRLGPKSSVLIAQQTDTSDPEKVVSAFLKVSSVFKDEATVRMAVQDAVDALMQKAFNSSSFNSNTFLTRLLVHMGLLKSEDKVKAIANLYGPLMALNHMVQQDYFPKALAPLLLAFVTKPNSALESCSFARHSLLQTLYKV
UniProt P49327, whole entry, looked up: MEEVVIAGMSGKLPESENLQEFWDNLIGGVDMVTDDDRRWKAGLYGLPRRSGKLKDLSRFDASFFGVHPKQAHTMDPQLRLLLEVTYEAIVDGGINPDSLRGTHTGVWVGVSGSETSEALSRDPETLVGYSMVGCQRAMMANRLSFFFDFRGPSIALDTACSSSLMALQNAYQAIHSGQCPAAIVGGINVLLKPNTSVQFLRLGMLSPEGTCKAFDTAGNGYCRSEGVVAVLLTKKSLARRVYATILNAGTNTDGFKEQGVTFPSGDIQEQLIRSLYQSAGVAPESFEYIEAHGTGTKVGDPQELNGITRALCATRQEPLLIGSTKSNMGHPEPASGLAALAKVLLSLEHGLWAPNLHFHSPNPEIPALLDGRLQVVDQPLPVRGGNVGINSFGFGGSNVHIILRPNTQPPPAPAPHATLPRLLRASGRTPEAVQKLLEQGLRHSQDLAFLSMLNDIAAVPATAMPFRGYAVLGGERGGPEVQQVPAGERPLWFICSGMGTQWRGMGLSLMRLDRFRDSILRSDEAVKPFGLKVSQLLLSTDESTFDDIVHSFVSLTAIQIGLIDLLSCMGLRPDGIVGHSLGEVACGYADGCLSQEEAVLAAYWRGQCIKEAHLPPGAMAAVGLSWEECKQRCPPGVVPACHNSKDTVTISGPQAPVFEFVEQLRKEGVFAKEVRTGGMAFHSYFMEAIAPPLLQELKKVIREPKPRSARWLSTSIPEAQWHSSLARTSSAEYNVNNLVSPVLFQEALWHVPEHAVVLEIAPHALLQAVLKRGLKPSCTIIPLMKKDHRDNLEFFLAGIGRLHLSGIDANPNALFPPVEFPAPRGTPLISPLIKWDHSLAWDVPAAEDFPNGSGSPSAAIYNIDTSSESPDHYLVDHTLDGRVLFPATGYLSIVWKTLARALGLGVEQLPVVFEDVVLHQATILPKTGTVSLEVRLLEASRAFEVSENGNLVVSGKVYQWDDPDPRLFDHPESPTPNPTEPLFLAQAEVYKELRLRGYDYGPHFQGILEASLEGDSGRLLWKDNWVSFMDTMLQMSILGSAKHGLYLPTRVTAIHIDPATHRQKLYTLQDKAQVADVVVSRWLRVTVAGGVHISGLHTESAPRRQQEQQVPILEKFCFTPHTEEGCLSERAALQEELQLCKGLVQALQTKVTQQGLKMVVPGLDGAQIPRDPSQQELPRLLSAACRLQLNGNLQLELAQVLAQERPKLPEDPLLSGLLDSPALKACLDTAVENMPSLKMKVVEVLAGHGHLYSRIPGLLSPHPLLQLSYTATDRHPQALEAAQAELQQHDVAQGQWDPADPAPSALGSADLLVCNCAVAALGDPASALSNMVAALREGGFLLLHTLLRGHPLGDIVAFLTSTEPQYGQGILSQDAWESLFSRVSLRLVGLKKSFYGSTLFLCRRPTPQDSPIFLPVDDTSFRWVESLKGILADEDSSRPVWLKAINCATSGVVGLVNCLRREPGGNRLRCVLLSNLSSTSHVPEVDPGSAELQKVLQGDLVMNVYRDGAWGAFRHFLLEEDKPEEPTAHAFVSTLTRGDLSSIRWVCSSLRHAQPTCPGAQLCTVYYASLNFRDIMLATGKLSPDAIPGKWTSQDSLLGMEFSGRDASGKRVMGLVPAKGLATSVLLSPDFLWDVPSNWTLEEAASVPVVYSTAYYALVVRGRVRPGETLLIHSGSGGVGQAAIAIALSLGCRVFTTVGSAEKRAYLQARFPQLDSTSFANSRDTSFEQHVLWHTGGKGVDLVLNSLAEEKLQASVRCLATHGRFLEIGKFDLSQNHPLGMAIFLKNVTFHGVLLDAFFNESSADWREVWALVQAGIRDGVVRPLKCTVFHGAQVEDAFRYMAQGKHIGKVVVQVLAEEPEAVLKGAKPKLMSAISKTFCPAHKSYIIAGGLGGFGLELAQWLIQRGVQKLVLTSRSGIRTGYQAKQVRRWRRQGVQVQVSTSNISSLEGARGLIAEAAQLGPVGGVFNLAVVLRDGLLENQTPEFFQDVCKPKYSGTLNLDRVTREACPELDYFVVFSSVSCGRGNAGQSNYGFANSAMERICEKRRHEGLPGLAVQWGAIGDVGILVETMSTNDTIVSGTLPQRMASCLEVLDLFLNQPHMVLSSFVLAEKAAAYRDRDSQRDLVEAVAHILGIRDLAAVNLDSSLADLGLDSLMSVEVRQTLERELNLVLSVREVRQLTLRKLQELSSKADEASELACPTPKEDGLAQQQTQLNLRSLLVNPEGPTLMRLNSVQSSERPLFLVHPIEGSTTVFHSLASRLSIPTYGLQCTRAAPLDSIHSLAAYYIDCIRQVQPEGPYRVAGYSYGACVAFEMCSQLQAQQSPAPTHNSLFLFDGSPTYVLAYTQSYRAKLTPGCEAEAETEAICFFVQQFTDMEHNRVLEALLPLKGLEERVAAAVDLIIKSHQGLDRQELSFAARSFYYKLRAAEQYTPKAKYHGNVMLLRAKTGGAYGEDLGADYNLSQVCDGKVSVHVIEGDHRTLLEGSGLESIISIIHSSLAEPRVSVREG
UniProt P46821: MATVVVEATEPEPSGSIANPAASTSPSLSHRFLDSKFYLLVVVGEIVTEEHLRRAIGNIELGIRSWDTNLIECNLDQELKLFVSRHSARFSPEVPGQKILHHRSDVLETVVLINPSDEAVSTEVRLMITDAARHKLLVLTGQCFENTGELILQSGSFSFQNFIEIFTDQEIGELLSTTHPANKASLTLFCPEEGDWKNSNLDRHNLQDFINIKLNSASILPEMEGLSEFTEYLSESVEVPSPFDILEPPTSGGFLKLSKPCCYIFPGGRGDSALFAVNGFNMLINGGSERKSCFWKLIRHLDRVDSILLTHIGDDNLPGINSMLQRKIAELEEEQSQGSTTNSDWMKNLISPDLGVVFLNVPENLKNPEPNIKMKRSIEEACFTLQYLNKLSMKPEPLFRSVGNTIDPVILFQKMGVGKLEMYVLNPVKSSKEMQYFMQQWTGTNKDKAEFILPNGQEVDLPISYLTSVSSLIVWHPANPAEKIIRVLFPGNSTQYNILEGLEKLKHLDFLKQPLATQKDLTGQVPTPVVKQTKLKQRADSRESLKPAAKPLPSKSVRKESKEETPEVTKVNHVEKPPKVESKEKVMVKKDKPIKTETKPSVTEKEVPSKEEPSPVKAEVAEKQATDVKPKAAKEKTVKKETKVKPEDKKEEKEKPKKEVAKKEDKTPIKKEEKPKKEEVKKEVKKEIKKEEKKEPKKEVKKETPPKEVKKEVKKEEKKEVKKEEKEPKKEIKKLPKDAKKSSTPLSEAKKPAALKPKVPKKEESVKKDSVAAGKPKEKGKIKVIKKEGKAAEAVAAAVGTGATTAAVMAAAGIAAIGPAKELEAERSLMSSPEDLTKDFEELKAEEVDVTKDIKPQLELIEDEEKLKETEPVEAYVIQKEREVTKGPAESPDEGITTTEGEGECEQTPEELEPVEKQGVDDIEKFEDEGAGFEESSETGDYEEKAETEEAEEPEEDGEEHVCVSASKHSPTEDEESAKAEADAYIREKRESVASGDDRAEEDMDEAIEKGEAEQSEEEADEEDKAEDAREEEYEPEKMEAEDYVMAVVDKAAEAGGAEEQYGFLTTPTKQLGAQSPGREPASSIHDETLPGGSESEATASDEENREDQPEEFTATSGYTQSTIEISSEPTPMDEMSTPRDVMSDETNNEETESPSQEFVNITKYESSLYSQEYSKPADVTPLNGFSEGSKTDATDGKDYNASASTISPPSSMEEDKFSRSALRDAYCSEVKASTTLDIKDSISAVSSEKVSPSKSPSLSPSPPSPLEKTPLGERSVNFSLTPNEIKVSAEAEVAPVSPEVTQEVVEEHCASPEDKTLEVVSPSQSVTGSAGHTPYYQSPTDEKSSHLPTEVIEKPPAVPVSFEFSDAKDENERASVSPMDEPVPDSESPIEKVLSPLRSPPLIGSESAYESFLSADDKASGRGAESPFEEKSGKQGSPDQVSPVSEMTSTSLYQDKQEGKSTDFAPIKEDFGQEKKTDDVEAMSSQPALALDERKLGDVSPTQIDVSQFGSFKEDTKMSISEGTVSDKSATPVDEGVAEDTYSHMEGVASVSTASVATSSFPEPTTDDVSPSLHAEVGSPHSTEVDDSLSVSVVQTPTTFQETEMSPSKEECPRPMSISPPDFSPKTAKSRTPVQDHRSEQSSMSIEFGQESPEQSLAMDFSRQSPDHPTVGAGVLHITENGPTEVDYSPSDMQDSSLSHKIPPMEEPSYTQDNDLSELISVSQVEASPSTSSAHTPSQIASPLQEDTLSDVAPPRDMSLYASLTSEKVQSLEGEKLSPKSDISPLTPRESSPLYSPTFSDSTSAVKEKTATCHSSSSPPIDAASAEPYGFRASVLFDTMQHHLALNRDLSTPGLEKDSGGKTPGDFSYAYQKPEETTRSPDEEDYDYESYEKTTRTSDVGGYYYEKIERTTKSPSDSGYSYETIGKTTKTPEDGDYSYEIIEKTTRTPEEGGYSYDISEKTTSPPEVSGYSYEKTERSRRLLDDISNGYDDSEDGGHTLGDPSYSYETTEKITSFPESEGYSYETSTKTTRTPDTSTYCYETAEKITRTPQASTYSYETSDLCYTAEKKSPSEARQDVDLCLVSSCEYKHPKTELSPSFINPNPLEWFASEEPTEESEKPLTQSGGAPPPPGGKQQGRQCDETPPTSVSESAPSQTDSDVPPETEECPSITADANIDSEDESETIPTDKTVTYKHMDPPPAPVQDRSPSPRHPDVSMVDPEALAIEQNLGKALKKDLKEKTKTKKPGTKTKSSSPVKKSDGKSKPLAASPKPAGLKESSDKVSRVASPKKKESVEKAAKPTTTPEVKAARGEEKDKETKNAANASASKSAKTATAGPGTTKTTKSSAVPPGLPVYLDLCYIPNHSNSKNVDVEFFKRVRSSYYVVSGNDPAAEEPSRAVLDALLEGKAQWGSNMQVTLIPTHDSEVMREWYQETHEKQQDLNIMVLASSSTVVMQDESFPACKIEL
UniProt P49366: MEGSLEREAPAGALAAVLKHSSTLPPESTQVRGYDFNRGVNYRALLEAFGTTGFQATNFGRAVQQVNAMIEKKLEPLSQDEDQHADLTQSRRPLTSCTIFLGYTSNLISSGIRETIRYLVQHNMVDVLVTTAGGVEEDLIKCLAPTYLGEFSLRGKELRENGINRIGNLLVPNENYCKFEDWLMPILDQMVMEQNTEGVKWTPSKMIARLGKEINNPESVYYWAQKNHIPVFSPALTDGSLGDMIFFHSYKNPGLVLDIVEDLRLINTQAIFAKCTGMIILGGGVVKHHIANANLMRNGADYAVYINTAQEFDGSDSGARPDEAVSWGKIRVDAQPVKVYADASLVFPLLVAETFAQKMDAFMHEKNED
UniProt P50336: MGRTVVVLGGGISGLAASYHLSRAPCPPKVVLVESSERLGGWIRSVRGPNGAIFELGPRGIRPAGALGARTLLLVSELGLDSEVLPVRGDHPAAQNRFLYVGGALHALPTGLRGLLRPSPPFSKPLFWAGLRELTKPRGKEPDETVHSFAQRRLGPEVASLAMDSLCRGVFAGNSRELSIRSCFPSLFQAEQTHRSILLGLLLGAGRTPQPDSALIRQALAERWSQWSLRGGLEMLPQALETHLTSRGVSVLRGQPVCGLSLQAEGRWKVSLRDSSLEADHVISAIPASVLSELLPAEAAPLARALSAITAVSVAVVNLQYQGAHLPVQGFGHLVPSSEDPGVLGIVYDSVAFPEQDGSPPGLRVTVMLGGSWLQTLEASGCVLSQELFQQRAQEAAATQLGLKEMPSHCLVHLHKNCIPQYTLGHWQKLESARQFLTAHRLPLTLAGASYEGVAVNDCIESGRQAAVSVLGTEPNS

Q: How did the “log2 ratio of iodoacetamide-alkyne labeling” value (“log2 ratio” below) turn out when UniProt P46734_C305 was run?
A: Its value is inactive: -0.185.

Q: Which “log2 ratio” value does the source give for ME1 C556 (UniProt P48163) here?
A: Its value is inactive: 0.22.

Q: How did the “log2 ratio” value turn out when VDAC2 C210 (UniProt P45880) was run?
A: The value was active: 1.39.

Q: RANGAP1 C338 (UniProt P46060) was tested. Which “log2 ratio” value did it give?
A: The value was inactive: 0.0782.

Q: Which “log2 ratio” value does the source give for CRKL C44 (UniProt P46109) here?
A: The value was inactive: 0.103.

Q: CCT3 C40 (UniProt P49368) was tested. Which “log2 ratio” value did it give?
A: The value was inactive: 0.13.

Q: How did the “log2 ratio” value turn out when HCFC1 C1872 (UniProt P51610) was run?
A: Its value is active: 1.32.

Q: Which “log2 ratio” value does the source give for UniProt P48047_C141 here?
A: The value was inactive: 0.345.

Q: FASN C2024 (UniProt P49327) was tested. Which “log2 ratio” value did it give?
A: Its value is inactive: 0.0332.

Q: With ACADSB C175 (UniProt P45954) as the target, how does the “log2 ratio” value read?
A: Its value is inactive: 0.109.

Q: How did the “log2 ratio” value turn out when UniProt P49674_C255 was run?
A: Its value is inactive: 0.112.

Q: FASN C1141 (UniProt P49327) was tested. Which “log2 ratio” value did it give?
A: Its value is inactive: 0.536.

Q: For NDUFV1 C286 (UniProt P49821), which “log2 ratio” value is on record?
A: Its value is inactive: 0.31.

Q: IRAK1 C620 (UniProt P51617) was tested. Which “log2 ratio” value did it give?
A: The value was inactive: 0.455.

Q: For PREP C255 (UniProt P48147), which “log2 ratio” value is on record?
A: Its value is inactive: 0.0469.

Q: Which “log2 ratio” value does the source give for GPD2 C385 (UniProt P43304) here?
A: Its value is inactive: 0.0903.

Q: RANBP2 C1296 (UniProt P49792) was tested. Which “log2 ratio” value did it give?
A: The value was inactive: 0.543.

Q: How did the “log2 ratio” value turn out when MKI67 C1373 (UniProt P46013) was run?
A: The value was inactive: 0.402.

Q: How did the “log2 ratio” value turn out when MAP1B C2041 (UniProt P46821) was run?
A: Its value is inactive: 0.488.

Q: With MAP1B C382 (UniProt P46821) as the target, how does the “log2 ratio” value read?
A: Its value is inactive: 0.848.

Q: How did the “log2 ratio” value turn out when MKI67 C1843 (UniProt P46013) was run?
A: The value was inactive: 0.392.

Q: Which “log2 ratio” value does the source give for KNTC1 C767 (UniProt P50748) here?
A: Its value is inactive: 0.0315.

Q: With CCT5 C440 (UniProt P48643) as the target, how does the “log2 ratio” value read?
A: Its value is inactive: 0.26.

Q: For SMARCA4 C1359 (UniProt P51532), which “log2 ratio” value is on record?
A: Its value is inactive: 0.353.

Q: FASN C313 (UniProt P49327) was tested. Which “log2 ratio” value did it give?
A: Its value is inactive: 0.093.

Q: With RANBP2 C188 (UniProt P49792) as the target, how does the “log2 ratio” value read?
A: Its value is inactive: 0.545.

Q: Which “log2 ratio” value does the source give for CCT8 C149 (UniProt P50990) here?
A: Its value is inactive: 0.0525.

Q: For VDAC2 C227 (UniProt P45880), which “log2 ratio” value is on record?
A: Its value is active: 1.39.

Q: Which “log2 ratio” value does the source give for NDUFV1 C425 (UniProt P49821) here?
A: Its value is inactive: 0.283.

Q: SEPHS1 C71 (UniProt P49903) was tested. Which “log2 ratio” value did it give?
A: Its value is inactive: 0.038.

Q: With ERF C165 (UniProt P50548) as the target, how does the “log2 ratio” value read?
A: Its value is inactive: 0.582.

Q: With IDH3A C127 (UniProt P50213) as the target, how does the “log2 ratio” value read?
A: Its value is inactive: 0.245.

Q: MAP1B C2065 (UniProt P46821) was tested. Which “log2 ratio” value did it give?
A: The value was inactive: 0.623.

Q: For GMPS C449 (UniProt P49915), which “log2 ratio” value is on record?
A: The value was inactive: 0.151.

Q: NUP153 C585 (UniProt P49790) was tested. Which “log2 ratio” value did it give?
A: Its value is inactive: 0.181.

Q: How did the “log2 ratio” value turn out when DHPS C142 (UniProt P49366) was run?
A: Its value is inactive: -0.105.

Q: With PPOX C183 (UniProt P50336) as the target, how does the “log2 ratio” value read?
A: The value was inactive: 0.262.

Source: the supplement of paper PMC11006884
